{"source": "patent US20230138974A1", "about": "“Polyherbal Self Micro-Emulsifying Delivery System (SMEDS) composition for multi-disease treatment” (priority 2021, published 2023)", "origin": "cited, not measured here", "test_system": "sudden death from myocardial infarction", "details": "200 mg per day of DHA from fish", "note": "At least one compound was matched to its structure with a doubt left."}
{"compound": "CC/C=C\\C/C=C\\C/C=C\\C/C=C\\C/C=C\\C/C=C\\CCC(=O)O", "note": "[DHA, Docosahexaenoic acid]", "values": [{"measurement": "reduction in sudden death from myocardial infarction", "result": "approximately 50%"}]}
